PubChem BioAssay AID1508597 – Cure First, 2020
Screen: 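Genes whose silencing sensitises or protects ovarian cancer cells against rucaparib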 (primary screen). Cells: human ovarian carcinoma lines grown from tumours: OCI-P5x (papillary serous) and OCI-C5x (clear cell). Knock-down reagent: siRNA pool against human genes, 1.25 pmol siRNA per well. Timing: 72 h or 96 h, depending on the cell culture. Treatment: rucaparib 20 µM (about IC30) or vehicle, present until read-out. Rucaparib or vehicle: Rucaparib. Cell line: OCI-P5x (serous). Measured: 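Luminescent ATP-based viability assay read 72 or 96 h after transfection, depending on culture, given as normalised percent viability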. Reading the numbers: viability, normalised: higher = more viable cells remaining. Rule for the call: 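a well counts as a hit if its normalised viability is under 80 percent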. Calls: active = viability under 80%; inactive = viability 80% or more.
Shown is a random part of the about 2,100 reagents, in one setting of the screen. 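Calls flag viability under 80% in either arm, not effects specific to rucaparib; the reference for percent is not stated.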 Entries without a mark were called inactive. A reagent listed more than once was tested more than once; the source does not tell the runs apart. Not stated in the record: the 100% reference.

gene	PubChem SID	technical replicate	viability, normalised (%)
KDM2A	SID405526929	1	72.3 (active)
KDM2A	SID405526929	2	72.3 (active)
KDM2A	SID405526929	3	84.4
BPTF	SID405528039	1	42.3 (active)
BPTF	SID405528039	2	45.2 (active)
BPTF	SID405528039	3	45.3 (active)
PI4KB	SID405526463	1	67.4 (active)
PI4KB	SID405526463	2	83.5
PI4KB	SID405526463	3	71.1 (active)
PI4KB	SID405527366	1	104
PI4KB	SID405527366	2	77.5 (active)
PI4KB	SID405527366	3	74.5 (active)
HIPK4	SID405527462	1	106
HIPK4	SID405527462	2	112
HIPK4	SID405527462	3	113
ATAD2	SID405527996	1	51.3 (active)
ATAD2	SID405527996	2	66.1 (active)
ATAD2	SID405527996	3	73.2 (active)
PML	SID405527170	1	66.7 (active)
PML	SID405527170	1	57.9 (active)
PML	SID405527170	2	46.3 (active)
PML	SID405527170	2	61.5 (active)
PML	SID405527170	3	64 (active)
PML	SID405527170	3	55.9 (active)
CDC42BPA	SID405527447	1	82
CDC42BPA	SID405527447	2	93.4
CDC42BPA	SID405527447	3	87.6
H4C2	SID405526863	1	61 (active)
H4C2	SID405526863	2	72.8 (active)
H4C2	SID405526863	3	56.9 (active)
CHMP1B	SID405528112	1	76.3 (active)
CHMP1B	SID405528112	2	80.6
CHMP1B	SID405528112	3	50.1 (active)
GINS1	SID405526815	1	67.4 (active)
GINS1	SID405526815	2	55.7 (active)
GINS1	SID405526815	3	73.3 (active)
MAD1L1	SID405528300	1	70.2 (active)
MAD1L1	SID405528300	2	87.6
MAD1L1	SID405528300	3	74.6 (active)
RAD51AP1	SID405528457	1	68.8 (active)
RAD51AP1	SID405528457	2	68.8 (active)
RAD51AP1	SID405528457	3	80.1
SMAD2	SID405527322	1	48.5 (active)
SMAD2	SID405527322	2	54.8 (active)
SMAD2	SID405527322	3	56.2 (active)
SMPD1	SID405526718	1	42.8 (active)
SMPD1	SID405526718	2	54.9 (active)
SMPD1	SID405526718	3	45.6 (active)
FOXS1	SID405526800	1	68.5 (active)
FOXS1	SID405526800	2	79.4 (active)
FOXS1	SID405526800	3	86.6
SDC4	SID405526453	1	108
SDC4	SID405526453	2	99.6
SDC4	SID405526453	3	111
PCBD1	SID405526430	1	92.4
PCBD1	SID405526430	2	75.5 (active)
PCBD1	SID405526430	3	105

Copied from the list.
Under “viability, normalised (%)”, PCBD1 [SID405526430], technical replicate 1 shows 92.4
CHMP1B [SID405528112], technical replicate 3, viability, normalised (%) = 50.1 (active)
SMAD2 [SID405527322], technical replicate 1, viability, normalised (%): 48.5 (active)
Under “viability, normalised (%)”, BPTF [SID405528039], technical replicate 2 reads 45.2 (active)
